Values of other authors, collected in patent publication US20060280700A1, “Oral hygiene system to fight the effects of aging on the mouth, gums, and teeth” (priority 2005, published 2006).
At least one compound was matched to its structure with a doubt left.

Tested on: plaque
Settings: mouth rinses; saline rinse as negative control

In the case of `C[n+]1cc2c3c(ccc2c2ccc4cc5c(cc4c21)OCO5)OCO3` [Sanguinarine], the “effectiveness on 4-day plaque growth relative to other rinses” value is given as “little different from saline”.
